Data as given in PubChem BioAssay AID1259308 (NCATS, 2017)

- Screen: 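Candidate targets for better recombinant protein yield in mammalian cells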 (primary screen)
- Cell system: human HEK293 embryonic kidney cells stably expressing firefly luciferase (HEK-CMV-Luc2-Hygro)
- Reagent: single siRNA against human genes, 0.8 pmol siRNA per well
- Timing: 72 h
- Measurement: 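Reporter luminescence and viable-cell signal on separate replicate plates, given as percent of non-targeting control and median/MAD z-scores, plus per-cell luciferase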
- Reading the numbers: total luciferase, z-score: higher = more reporter protein produced
- Active means: 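An siRNA counts as active if its total luciferase robust z-score exceeds 3; genes with two or more such siRNAs out of three were retested with fresh siRNAs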
- Meaning of the calls: active = raised luciferase; inactive = no rise
Here is one part, drawn at random, of about 59,000 reagents. About 1,510 of all reagents (2.6%) count as active. 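Calls use total luciferase alone and ignore viability, so some active siRNAs may act by altering cell number.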 Reagents against one gene are numbered here. Further read-outs or replicates are left out here.

{"gene": "USP34 (GeneID 9736)", "reagent no.": 1, "total luciferase, z-score": -0.414, "outcome": "inactive"}
{"gene": "USP34 (GeneID 9736)", "reagent no.": 2, "total luciferase, z-score": -0.04, "outcome": "inactive"}
{"gene": "USP34 (GeneID 9736)", "reagent no.": 3, "total luciferase, z-score": -0.346, "outcome": "inactive"}
{"gene": "KCNH8 (GeneID 131096)", "reagent no.": 1, "total luciferase, z-score": 1.41, "outcome": "inactive"}
{"gene": "KCNH8 (GeneID 131096)", "reagent no.": 2, "total luciferase, z-score": -0.0355, "outcome": "inactive"}
{"gene": "KCNH8 (GeneID 131096)", "reagent no.": 3, "total luciferase, z-score": -1.93, "outcome": "inactive"}
{"gene": "FMO3 (GeneID 2328)", "reagent no.": 1, "total luciferase, z-score": -1.37, "outcome": "inactive"}
{"gene": "FMO3 (GeneID 2328)", "reagent no.": 2, "total luciferase, z-score": 0.38, "outcome": "inactive"}
{"gene": "FMO3 (GeneID 2328)", "reagent no.": 3, "total luciferase, z-score": 1.27, "outcome": "inactive"}
{"gene": "HMGN5 (GeneID 79366)", "reagent no.": 1, "total luciferase, z-score": 0.00233, "outcome": "inactive"}
{"gene": "HMGN5 (GeneID 79366)", "reagent no.": 2, "total luciferase, z-score": 0.499, "outcome": "inactive"}
{"gene": "HMGN5 (GeneID 79366)", "reagent no.": 3, "total luciferase, z-score": -2.03, "outcome": "inactive"}
{"gene": "NSUN7 (GeneID 79730)", "reagent no.": 1, "total luciferase, z-score": -0.24, "outcome": "inactive"}
{"gene": "NSUN7 (GeneID 79730)", "reagent no.": 2, "total luciferase, z-score": 0.401, "outcome": "inactive"}
{"gene": "NSUN7 (GeneID 79730)", "reagent no.": 3, "total luciferase, z-score": -0.0276, "outcome": "inactive"}
{"gene": "SMIM5 (GeneID 643008)", "reagent no.": 1, "total luciferase, z-score": 0.976, "outcome": "inactive"}
{"gene": "SMIM5 (GeneID 643008)", "reagent no.": 2, "total luciferase, z-score": 0.434, "outcome": "inactive"}
{"gene": "SMIM5 (GeneID 643008)", "reagent no.": 3, "total luciferase, z-score": -1.38, "outcome": "inactive"}
{"gene": "TAGAP (GeneID 117289)", "reagent no.": 1, "total luciferase, z-score": 0.932, "outcome": "inactive"}
{"gene": "TAGAP (GeneID 117289)", "reagent no.": 2, "total luciferase, z-score": -2.38, "outcome": "inactive"}
{"gene": "TAGAP (GeneID 117289)", "reagent no.": 3, "total luciferase, z-score": -0.129, "outcome": "inactive"}
{"gene": "L3HYPDH (GeneID 112849)", "reagent no.": 1, "total luciferase, z-score": -0.047, "outcome": "inactive"}
{"gene": "L3HYPDH (GeneID 112849)", "reagent no.": 2, "total luciferase, z-score": 0.154, "outcome": "inactive"}
{"gene": "L3HYPDH (GeneID 112849)", "reagent no.": 3, "total luciferase, z-score": -0.113, "outcome": "inactive"}
{"gene": "QRFPR (GeneID 84109)", "reagent no.": 1, "total luciferase, z-score": 2.83, "outcome": "inactive"}
{"gene": "QRFPR (GeneID 84109)", "reagent no.": 2, "total luciferase, z-score": -1.03, "outcome": "inactive"}
{"gene": "QRFPR (GeneID 84109)", "reagent no.": 3, "total luciferase, z-score": -0.132, "outcome": "inactive"}
{"gene": "CCSER2 (GeneID 54462)", "reagent no.": 1, "total luciferase, z-score": -0.972, "outcome": "inactive"}
{"gene": "CCSER2 (GeneID 54462)", "reagent no.": 2, "total luciferase, z-score": -2.67, "outcome": "inactive"}
{"gene": "CCSER2 (GeneID 54462)", "reagent no.": 3, "total luciferase, z-score": -0.732, "outcome": "inactive"}
{"gene": "MAP2K1 (GeneID 5604)", "reagent no.": 1, "total luciferase, z-score": -0.103, "outcome": "inactive"}
{"gene": "MAP2K1 (GeneID 5604)", "reagent no.": 2, "total luciferase, z-score": -0.477, "outcome": "inactive"}
{"gene": "MAP2K1 (GeneID 5604)", "reagent no.": 3, "total luciferase, z-score": -0.472, "outcome": "inactive"}
